The source of these data is publication PMC11315935, “Multi-layered heterochromatin interaction as a switch for DIM2-mediated DNA methylation” (Nature Communications, 2024).

Chains of the proteins cited; added tags and fusions are not shown.
UniProt Q3Y3Z1, entry or part of it W581A: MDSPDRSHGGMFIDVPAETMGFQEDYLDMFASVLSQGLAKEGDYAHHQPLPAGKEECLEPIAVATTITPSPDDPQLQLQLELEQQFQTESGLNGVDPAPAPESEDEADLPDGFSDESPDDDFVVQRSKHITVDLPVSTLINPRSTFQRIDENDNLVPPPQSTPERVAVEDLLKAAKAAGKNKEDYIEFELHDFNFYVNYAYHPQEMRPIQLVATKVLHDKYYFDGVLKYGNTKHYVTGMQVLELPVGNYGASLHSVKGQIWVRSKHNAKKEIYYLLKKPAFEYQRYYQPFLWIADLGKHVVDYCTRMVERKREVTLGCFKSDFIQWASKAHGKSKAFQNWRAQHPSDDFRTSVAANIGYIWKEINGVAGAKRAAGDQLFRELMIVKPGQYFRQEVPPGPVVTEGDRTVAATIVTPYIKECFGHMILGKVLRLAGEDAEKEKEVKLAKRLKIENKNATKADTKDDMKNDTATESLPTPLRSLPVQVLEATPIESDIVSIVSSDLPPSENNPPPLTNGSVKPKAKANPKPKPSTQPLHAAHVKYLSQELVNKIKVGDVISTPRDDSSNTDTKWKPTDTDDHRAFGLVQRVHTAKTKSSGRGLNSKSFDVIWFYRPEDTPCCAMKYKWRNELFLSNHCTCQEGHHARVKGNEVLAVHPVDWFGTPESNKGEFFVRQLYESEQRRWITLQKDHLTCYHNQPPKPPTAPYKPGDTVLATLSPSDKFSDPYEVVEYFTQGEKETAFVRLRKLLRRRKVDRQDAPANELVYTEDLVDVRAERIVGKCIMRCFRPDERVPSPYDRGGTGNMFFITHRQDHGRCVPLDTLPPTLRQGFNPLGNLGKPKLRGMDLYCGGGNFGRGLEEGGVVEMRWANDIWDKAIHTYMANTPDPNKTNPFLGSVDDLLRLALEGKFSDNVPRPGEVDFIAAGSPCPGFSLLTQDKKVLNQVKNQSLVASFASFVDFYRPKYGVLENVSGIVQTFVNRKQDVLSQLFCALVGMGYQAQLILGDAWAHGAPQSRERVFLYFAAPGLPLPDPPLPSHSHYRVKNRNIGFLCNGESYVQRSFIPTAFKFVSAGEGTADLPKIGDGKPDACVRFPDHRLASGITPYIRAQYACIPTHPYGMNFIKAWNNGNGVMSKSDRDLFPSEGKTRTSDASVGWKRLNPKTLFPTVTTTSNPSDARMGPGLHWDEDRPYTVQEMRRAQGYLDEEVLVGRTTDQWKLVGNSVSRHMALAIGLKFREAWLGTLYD
UniProt Q3Y3Z1, entry or part of it W261A: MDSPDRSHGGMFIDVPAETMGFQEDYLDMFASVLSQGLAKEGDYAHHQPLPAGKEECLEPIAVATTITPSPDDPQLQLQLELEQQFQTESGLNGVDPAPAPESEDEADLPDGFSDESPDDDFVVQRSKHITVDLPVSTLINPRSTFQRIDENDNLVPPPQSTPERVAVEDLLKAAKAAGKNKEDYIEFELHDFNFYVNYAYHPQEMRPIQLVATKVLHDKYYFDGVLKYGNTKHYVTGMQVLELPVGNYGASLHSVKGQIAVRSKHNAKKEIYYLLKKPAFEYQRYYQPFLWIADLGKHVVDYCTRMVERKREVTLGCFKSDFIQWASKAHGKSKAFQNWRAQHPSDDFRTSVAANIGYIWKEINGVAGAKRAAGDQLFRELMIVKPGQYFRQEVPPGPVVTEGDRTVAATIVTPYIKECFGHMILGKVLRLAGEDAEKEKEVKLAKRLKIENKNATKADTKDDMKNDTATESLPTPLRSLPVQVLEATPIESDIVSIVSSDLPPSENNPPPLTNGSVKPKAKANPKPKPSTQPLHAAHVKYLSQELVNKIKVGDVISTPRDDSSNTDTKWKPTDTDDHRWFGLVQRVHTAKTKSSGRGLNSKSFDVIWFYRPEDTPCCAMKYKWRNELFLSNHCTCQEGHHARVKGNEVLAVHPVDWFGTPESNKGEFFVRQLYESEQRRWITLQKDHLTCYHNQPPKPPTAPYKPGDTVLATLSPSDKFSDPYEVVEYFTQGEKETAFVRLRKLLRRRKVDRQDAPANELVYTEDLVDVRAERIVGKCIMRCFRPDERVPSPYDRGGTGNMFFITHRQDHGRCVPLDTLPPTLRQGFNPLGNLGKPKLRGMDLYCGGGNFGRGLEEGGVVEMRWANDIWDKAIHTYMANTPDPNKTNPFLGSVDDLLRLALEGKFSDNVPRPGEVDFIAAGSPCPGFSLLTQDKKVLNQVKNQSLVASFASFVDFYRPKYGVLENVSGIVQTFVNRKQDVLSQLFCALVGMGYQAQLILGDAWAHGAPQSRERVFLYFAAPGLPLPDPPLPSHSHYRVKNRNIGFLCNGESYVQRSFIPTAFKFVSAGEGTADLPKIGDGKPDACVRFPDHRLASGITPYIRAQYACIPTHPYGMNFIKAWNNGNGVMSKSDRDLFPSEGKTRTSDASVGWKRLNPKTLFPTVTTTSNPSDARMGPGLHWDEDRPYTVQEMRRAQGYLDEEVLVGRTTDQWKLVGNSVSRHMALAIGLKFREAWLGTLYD
UniProt Q3Y3Z1, entry or part of it: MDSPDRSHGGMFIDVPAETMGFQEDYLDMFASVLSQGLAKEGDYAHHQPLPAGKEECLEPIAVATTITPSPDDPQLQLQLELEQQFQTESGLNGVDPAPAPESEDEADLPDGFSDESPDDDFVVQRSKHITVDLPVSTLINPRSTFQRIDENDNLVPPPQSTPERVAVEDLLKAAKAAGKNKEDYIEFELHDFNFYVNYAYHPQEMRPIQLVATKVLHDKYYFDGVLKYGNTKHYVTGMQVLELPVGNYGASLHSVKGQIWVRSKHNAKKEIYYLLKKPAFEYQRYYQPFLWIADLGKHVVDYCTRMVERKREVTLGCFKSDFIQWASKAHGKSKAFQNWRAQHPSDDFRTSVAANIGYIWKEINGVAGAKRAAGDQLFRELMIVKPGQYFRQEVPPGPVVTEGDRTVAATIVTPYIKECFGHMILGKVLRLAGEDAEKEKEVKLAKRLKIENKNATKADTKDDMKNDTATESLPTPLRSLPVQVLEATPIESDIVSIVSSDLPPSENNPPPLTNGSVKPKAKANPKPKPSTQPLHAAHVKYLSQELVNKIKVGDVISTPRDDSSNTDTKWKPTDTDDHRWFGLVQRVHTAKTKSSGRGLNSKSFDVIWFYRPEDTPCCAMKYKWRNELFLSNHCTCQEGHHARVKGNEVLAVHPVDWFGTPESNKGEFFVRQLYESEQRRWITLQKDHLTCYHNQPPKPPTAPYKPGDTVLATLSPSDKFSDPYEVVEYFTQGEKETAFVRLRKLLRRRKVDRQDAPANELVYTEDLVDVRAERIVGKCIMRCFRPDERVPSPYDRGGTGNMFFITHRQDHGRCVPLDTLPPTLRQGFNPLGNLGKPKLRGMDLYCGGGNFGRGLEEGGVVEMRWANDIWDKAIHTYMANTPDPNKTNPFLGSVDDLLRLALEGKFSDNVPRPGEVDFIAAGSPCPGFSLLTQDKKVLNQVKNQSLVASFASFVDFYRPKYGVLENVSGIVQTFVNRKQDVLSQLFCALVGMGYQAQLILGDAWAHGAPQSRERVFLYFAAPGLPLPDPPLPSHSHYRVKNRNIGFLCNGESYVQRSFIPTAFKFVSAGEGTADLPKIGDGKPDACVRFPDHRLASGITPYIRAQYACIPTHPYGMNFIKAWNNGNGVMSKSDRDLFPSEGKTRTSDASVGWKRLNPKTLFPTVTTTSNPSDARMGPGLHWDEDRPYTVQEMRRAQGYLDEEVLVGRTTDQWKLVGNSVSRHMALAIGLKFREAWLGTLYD

Common to all, as to assay: EMSA
Details in all cases: H3K9me3 peptide 0.8 uM; EMSA: 0.1 uM DNA, 0-0.4 uM DIM2, 20 mM Tris-HCl pH 8.0, 75 mM NaCl, 10% glycerol, 5 mM DTT, 2% NP-40; gel at 4 C, Tris-Glycine pH 8.6; recombinant protein; residues 1-1242; protein details: His6-MBP removed by TEV; label: none (SYBR Gold stain)

The target of series [1] is DIM2 W581A (Neurospora crassa) (UniProt Q3Y3Z1).
For series [2], the target named is DIM2 W261A (Neurospora crassa) (UniProt Q3Y3Z1).
Series [3] deals with DIM2 (1-1242) (Neurospora crassa) (UniProt Q3Y3Z1).

For at least one entry, the source does not settle the construct or the ends of the probe. For part of these data: Weaker means in comparison with the reference protein, sequence or condition of that experiment. For part of these data: At least one verdict was read from the data and is not stated in words by the source.

For “ATTATTAATCTAAATTTA (double strand) [CHH DNA 18-mer duplex]”, the figures for the binding result in series [1], in series [2] and in series [3] were “binds more weakly”, “binds more weakly” and “binds”, respectively.
